Measurements reported in PubChem BioAssay AID1259260 (Sanger Institute, 2017).

Assay: 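Kinome knock-down with three anchor drugs to find synergy partners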 (primary screen)
System: human NCI-H716 colorectal cancer cells
Knock-down reagent: siRNA pool against human genes
Treatment: anchor drugs BYL719 (alpelisib) 1 µM, cetuximab 5 µg/ml or trametinib 10 nM, each at a dose chosen to harm viability only mildly; DMSO vehicle for the knock-down-alone arm
Measured: 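Mean viability over replicates against non-targeting siRNA, robust z-score without drug, and per-drug synergy comparing combined with single treatments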
Direction: viability robust z-score, siRNA alone: higher = more surviving cells; below -3 called essential; viability vs control, no drug: higher = more surviving cells
Rule for the call: 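a knock-down counts as essential if its no-drug robust z-score is lower than -3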
Calls: active = essential (knock-down alone lowers viability); inactive = no essential effect
In all, the deposit lists 794 reagents; shown is a part drawn at random. 13 of them (1.6%) were called active. 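Calls reflect only knock-down without drug; synergy above 0.15 was grouped apart and does not change the call.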 No viability above 1 is reported: the scale is capped. Further read-outs or replicates are left out here. Reagent sequences are not shown. Not given: the amount of reagent, the time to read-out.

Target gene	PubChem SID	viability robust z-score, siRNA alone	viability vs control, no drug (fraction of control)	Call
TTBK1	SID135620866	-0.674	0.867	inactive
BRD4	SID152154839	-0.435	0.892	inactive
WEE1	SID152152823	0.602	1	inactive
TPD52L3	SID56479192	0.602	1	inactive
GALK2	SID56479099	-0.0697	0.93	inactive
CAMK2A	SID56478931	0.224	0.961	inactive
EPHA5	SID152153658	0.602	1	inactive
FGFR4	SID56478514	0.602	1	inactive
MAP4K2	SID56478700	0.474	0.987	inactive
FGFRL1	SID135622448	0.602	1	inactive
NEK4	SID152155431	0.268	0.965	inactive
NTRK3	SID135620627	0.602	1	inactive
SGK1	SID152156682	0.602	1	inactive
CILK1	SID152149076	0.525	0.992	inactive
EPHA10	SID135620971	-0.595	0.876	inactive
PRKD1	SID152147507	0.602	1	inactive
NEK2	SID56478772	0.602	1	inactive
MAPK15	SID152151405	0.452	0.984	inactive
LRRK1	SID135620970	0.602	1	inactive
PFKL	SID56479167	0.602	1	inactive
ACVR1	SID152154539	-0.687	0.866	inactive
MAST1	SID135620865	0.602	1	inactive
PRKX	SID152149946	0.602	1	inactive
PHKB	SID134312707	-0.913	0.843	inactive

Part of the list above, set out differently:
{"Target gene": "SGK1", "PubChem SID": "SID152156682", "viability robust z-score, siRNA alone": 0.602, "viability vs control, no drug (fraction of control)": 1, "Call": "inactive"}
{"Target gene": "CILK1", "PubChem SID": "SID152149076", "viability robust z-score, siRNA alone": 0.525, "viability vs control, no drug (fraction of control)": 0.992, "Call": "inactive"}
{"Target gene": "EPHA10", "PubChem SID": "SID135620971", "viability robust z-score, siRNA alone": -0.595, "viability vs control, no drug (fraction of control)": 0.876, "Call": "inactive"}
{"Target gene": "PRKD1", "PubChem SID": "SID152147507", "viability robust z-score, siRNA alone": 0.602, "viability vs control, no drug (fraction of control)": 1, "Call": "inactive"}
{"Target gene": "NEK2", "PubChem SID": "SID56478772", "viability robust z-score, siRNA alone": 0.602, "viability vs control, no drug (fraction of control)": 1, "Call": "inactive"}
{"Target gene": "MAPK15", "PubChem SID": "SID152151405", "viability robust z-score, siRNA alone": 0.452, "viability vs control, no drug (fraction of control)": 0.984, "Call": "inactive"}
{"Target gene": "LRRK1", "PubChem SID": "SID135620970", "viability robust z-score, siRNA alone": 0.602, "viability vs control, no drug (fraction of control)": 1, "Call": "inactive"}
{"Target gene": "PFKL", "PubChem SID": "SID56479167", "viability robust z-score, siRNA alone": 0.602, "viability vs control, no drug (fraction of control)": 1, "Call": "inactive"}
{"Target gene": "ACVR1", "PubChem SID": "SID152154539", "viability robust z-score, siRNA alone": -0.687, "viability vs control, no drug (fraction of control)": 0.866, "Call": "inactive"}

The list goes on.
Target gene	PubChem SID	viability robust z-score, siRNA alone	viability vs control, no drug (fraction of control)	Call
CEP290	SID152154792	0.602	1	inactive
MAP4K1	SID56478699	-0.0204	0.935	inactive
EIF2AK4	SID152146907	-2.28	0.7	inactive
DGKH	SID134311961	-0.749	0.86	inactive
CDK19	SID56478856	0.602	1	inactive
SPHK1	SID152154122	0.602	1	inactive
PDK2	SID56478952	0.439	0.983	inactive
TCF12	SID134311750	0.602	1	inactive
DYRK1B	SID56478878	-1.08	0.826	inactive
PIP5K1A	SID56478868	-1.05	0.828	inactive
CDKN2D	SID135620643	0.602	1	inactive
ULK2	SID56479062	-1.02	0.832	inactive
RTN4	SID134315213	0.602	1	inactive
PTK6	SID152152810	0.602	1	inactive
MECOM	SID135621208	0.602	1	inactive
MAP4K4	SID56478747	0.602	1	inactive
NF1	SID152155944	0.602	1	inactive
DAPK2	SID152156399	0.602	1	inactive
ALDH18A1	SID152152799	0.602	1	inactive
PDGFRB	SID152152554	-0.201	0.917	inactive
HIPK2	SID56478619	0.602	1	inactive
SMAD2	SID152156776	0.602	1	inactive
CDKL1	SID56478790	0.602	1	inactive
NME1	SID56479166	0.602	1	inactive
PKN3	SID56478823	-1.05	0.828	inactive
AK2	SID56479162	0.602	1	inactive
CDK5R1	SID135621688	0.602	1	inactive
TGFBR2	SID152152630	0.602	1	inactive
MET	SID56478534	0.602	1	inactive
STK38L	SID152156064	-1.8	0.751	inactive
MAPK6	SID56478707	0.602	1	inactive
GUCY2D	SID135620972	-3.49	0.574	active
TP53BP1	SID134309949	0.602	1	inactive
RPS6KC1	SID135620976	0.602	1	inactive
MASTL	SID56478754	0.602	1	inactive
GNAS	SID152155794	0.602	1	inactive
MAP2K3	SID152148115	0.602	1	inactive
DGKG	SID152147412	-1.14	0.819	inactive
KSR1	SID152156641	-1.11	0.822	inactive
